Results are given in words; binding and its absence hold for the method and conditions named. In cells and extracts the contact can be indirect. Some binding calls cover weakened binding; strength is not graded here.

Amino acid sequences for entries named in this document (tags omitted). Residues count along the entry.
UniProt Q9UGM1, residues 23-479: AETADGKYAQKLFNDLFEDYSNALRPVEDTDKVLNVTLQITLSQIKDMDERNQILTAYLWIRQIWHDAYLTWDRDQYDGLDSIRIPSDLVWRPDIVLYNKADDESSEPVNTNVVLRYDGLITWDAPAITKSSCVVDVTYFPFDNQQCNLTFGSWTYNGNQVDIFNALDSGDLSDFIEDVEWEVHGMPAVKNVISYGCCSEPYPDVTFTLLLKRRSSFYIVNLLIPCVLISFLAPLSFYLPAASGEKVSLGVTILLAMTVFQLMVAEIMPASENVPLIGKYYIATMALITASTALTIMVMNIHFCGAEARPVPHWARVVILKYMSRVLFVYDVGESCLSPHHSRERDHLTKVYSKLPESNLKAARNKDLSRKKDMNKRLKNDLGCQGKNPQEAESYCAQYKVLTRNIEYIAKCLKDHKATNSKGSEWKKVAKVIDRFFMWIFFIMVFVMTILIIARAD
UniProt P53350: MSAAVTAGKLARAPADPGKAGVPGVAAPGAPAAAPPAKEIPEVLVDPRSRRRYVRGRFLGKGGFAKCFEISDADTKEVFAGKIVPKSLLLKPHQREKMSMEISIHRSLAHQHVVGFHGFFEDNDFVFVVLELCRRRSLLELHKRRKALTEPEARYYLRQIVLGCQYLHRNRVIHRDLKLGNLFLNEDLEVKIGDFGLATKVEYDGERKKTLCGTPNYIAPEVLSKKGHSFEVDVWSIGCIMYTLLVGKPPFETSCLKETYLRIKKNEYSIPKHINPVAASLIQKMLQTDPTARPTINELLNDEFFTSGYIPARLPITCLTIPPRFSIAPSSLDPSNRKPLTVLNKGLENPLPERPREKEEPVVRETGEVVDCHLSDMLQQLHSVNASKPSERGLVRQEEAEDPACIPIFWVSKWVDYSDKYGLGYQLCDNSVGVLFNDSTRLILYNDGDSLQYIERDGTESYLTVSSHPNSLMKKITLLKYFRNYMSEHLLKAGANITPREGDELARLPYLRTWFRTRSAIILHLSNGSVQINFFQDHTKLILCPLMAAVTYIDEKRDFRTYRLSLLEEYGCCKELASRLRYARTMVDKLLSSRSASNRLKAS

Results on four substances are retold here after article PMC6635409.

In assay [1] the target is ERBB2-Nluc (human) (UniProt P04626). As to the kind of experiment: split reporter; split luciferase complementation; MDA-MB-231 cells co-transfected with CHRNA9-Cluc/ERBB2-Nluc, inoculated into mammary fat pads of nude mice; IVIS imaging before and 30 min after 100 µg kg^-1 oral nicotine.
Assay [2] deals with ERBB2 (human (endogenous in BT474, A549 and clinical breast tumors)) (UniProt P04626). As to the kind of experiment: co-IP; endogenous proteins in BT474 (also A549) cells starved 24 h; ERBB2 antibody/bead complex precipitated and immunoblotted for CHRNA9; nicotine 15 min (dose-dependent, up to 10 µM) with or without bupropion pretreatment 30 min (0, 0.1, 1 µM).
Assay [3] has the same target. Briefly: FRET or BRET; clinical breast tumors of HER2-enriched and triple-negative subtypes, CHRNA9/ERBB2 analyzed by FRET.
Assay [4] deals with ERBB2-YFP (human) (UniProt P04626). Briefly: FRET or BRET; FLIM (two-photon) in live MDA-MB-231 cells co-transfected with ERBB2-YFP/CHRNA9-CFP, starved 24 h; during treatment with 10 µM nicotine for 30 min.
Assay [5] has the same target. Briefly: FRET or BRET; FLIM (two-photon) in live MDA-MB-231 cells co-transfected with ERBB2-YFP/CHRNA9-CFP, starved 24 h; before nicotine and after washing with PBS.
In assay [6] the target is T1, SLC16A7 (human (endogenous in MDA-MB-231 and A549)) (UniProt O60669).
T1 sequence: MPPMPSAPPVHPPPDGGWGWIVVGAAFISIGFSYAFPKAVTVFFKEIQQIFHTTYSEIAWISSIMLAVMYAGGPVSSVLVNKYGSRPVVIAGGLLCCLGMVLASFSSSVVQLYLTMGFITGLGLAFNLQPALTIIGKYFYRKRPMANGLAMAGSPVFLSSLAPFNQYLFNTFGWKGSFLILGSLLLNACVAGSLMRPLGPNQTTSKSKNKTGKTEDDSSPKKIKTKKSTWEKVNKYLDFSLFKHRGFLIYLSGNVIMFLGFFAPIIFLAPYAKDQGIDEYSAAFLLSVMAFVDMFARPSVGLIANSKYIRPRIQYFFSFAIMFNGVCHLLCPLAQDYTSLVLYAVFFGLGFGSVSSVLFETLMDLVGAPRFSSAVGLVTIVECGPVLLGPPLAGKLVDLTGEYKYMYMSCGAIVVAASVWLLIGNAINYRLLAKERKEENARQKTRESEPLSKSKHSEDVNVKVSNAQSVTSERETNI
Briefly: co-IP; endogenous proteins in MDA-MB-231 and A549 cells; SLC16A7 and four interacting candidates, IP ratio (IPR) against input, threshold >3% in both reciprocal IPs.

Regarding “CHRNA9-Cluc (from UniProt Q9UGM1 23-479) (receptor)”, the binding entry in assay [1] is “binds”.
As to “nicotinic acetylcholine receptor subunit α9 (CHRNA9) (from UniProt Q9UGM1 23-479)”, the binding result in assay [2] and in assay [3] was “binds” each time.
As to “CHRNA9-CFP (from UniProt Q9UGM1 23-479) (receptor)”, the binding entry in assay [4] was “no binding (condition: with 10 μM nicotine)”; in assay [5] it was “binds”.
With “PLK1 (from UniProt P53350 1-603) (enzyme)”, in assay [6], the binding entry is on record as “binds”.
